Test results: PubChem BioAssay AID1347075 (National Center for Advancing Translational Sciences (NCATS), 2019)
The whole screen tested about 400,000 compounds, of which about 5,500 (1.4%) were called active. The inconclusive results got no clear call from the source; some entries with a clear call stand among them for comparison. The call rests on the fitted dose curve; in most records, active means well fitted cell-killing curve with a large enough effect; inconclusive means small, poorly fitted or top-dose-only effect, or effect the other way; inactive means flat fitted curve, though single readings scatter. Where the call is inconclusive, the potency comes from a doubtful curve fit.

Assay: qHTS assay for MDR1-selective chemotherapeutics: Primary screen using the parental adenocarcinoma cell KB-3-1; further: nearly all actives have a fitted effect of over 60% in size
Details: KB-3-1 viability, CellTiter-Glo ATP luminescence, 72 h; activity change, negative = cytotoxic: at 46.1 µM (top of the series)
How it was run: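 Screening of KB-3-1 cells (DMEM, 10% FBS, phenol-red free) ran from lowest to highest compound concentration; after 72 h at 37 °C viability was read luminescently and curves fitted.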
On the % scale 0 is the no-effect control and ±100 the full control effect; potency means the concentration at half of the fitted maximal effect.

Row | Structure (SMILES) | activity change, negative = cytotoxic | Potency
1 | CN(c1ccccc1)S(=O)(=O)c1ccc(NC(=O)COc2ccccc2)cc1 | inactive: 0% | –
2 | CCOc1ccccc1NC(=O)C(C)Sc1nc2c(c(=O)[nH]1)CCCC2 (stereo not given) | inactive: -2.61% | –
3 | N#Cc1nc(COc2ccccc2)oc1N1CCN(c2cccc(Cl)c2)CC1 | – | inconclusive: 18.4 µM [cytotoxic, single point]
4 | COc1ccccc1NS(=O)(=O)c1cc(C(=O)NCC(c2ccc(F)cc2)N2CCOCC2)ccc1C (stereo not given) | inactive: -6.25% | –
5 | CC(=O)N1c2ccc(S(=O)(=O)N3CCC(C(=O)N4CC(C)CC(C)C4)CC3)cc2CC1C (stereo not given) | inactive: -22.4% | –
6 | COc1ccc2c(c1OC)C(C1c3c(cc4c(c3OC)OCO4)CCN1C)OC2=O (stereo not given) | – | inconclusive: 29.1 µM [cytotoxic, single point]
7 | O=C(N/N=C/c1cccnc1)c1ccc(NC(=O)C(c2ccccc2)c2ccccc2)cc1 | – | inconclusive: 14.6 µM [rising, partial curve, poor fit]
8 | c1ccc(Nc2ccc(-n3ccnc3)nn2)cc1 | – | inconclusive: 16.4 µM [rising, partial curve]
9 | CCC(C(=O)NCCC(C)C)n1ccc2cc(S(=O)(=O)N3CCCCC3)ccc21 (stereo not given) | – | inconclusive: 18.4 µM [cytotoxic, single point]
10 | CNC(=O)c1ccc2nc(-c3ccccc3)c(-c3ccccc3)nc2c1 | inactive: 0% | –
11 | Cc1ccc(NC(=S)NNc2ncc(C(F)(F)F)cc2Cl)c(C)c1 | inactive: -7.8% | –
12 | Cc1noc(C)c1NC(=O)N(C)C[C@@H]1OCc2cn(nn2)CCCC(=O)N([C@H](C)CO)C[C@H]1C | inactive: -8.85% | –
13 | Cc1ccc(-c2nn3c(C)nnc3c3ccccc23)cc1S(=O)(=O)NC(C)c1ccccc1 (stereo not given) | – | inconclusive: 29.1 µM [cytotoxic, partial curve, poor fit]
14 | CC1O[C@H](OC2C(COC3OC(CO)C(O)[C@H](O)C3O)OC(OC3CC[C@]4(C)C(CC[C@@]5(C)[C@@H]4C=C[C@]46OC[C@@]7(CCC(C)(C)C[C@H]74)C(O)C[C@@]56C)C3(C)C)C(O)C2O)C(O)C(O)C1O (stereo not given in full) | – | inconclusive: 18.4 µM [rising, single point]
15 | Cc1cccc(NC(=S)N/N=C2/CCCCc3ccccc32)c1 | – | inconclusive: 23.1 µM [cytotoxic, single point]
16 | O=C(NCCn1cc(SCc2ccc(F)cc2)c2ccccc21)c1ccccc1F | – | inconclusive: 29.1 µM [cytotoxic, single point]
17 | C/C(=N\NC(=S)NC1CCCCC1)c1ccc(O)cc1 | – | active: 16.4 µM
18 | CCOc1cccc(C(=O)NC(=S)Nc2ccc(N3CCN(CC)CC3)cc2)c1 | inactive: -13.1% | –
19 | CC#CCOC(=O)c1c(C)nc2sc3c(c2c1N)CCC(O)C3 (stereo not given) | – | inconclusive: 18.4 µM [cytotoxic, single point]
20 | CCN(CC)CCNC(=O)c1ccc2c(c1NCCO)C(=O)c1ccccc1C2=O | – | inconclusive: 29.1 µM [cytotoxic, single point]
21 | O=c1[nH]c(-c2ccccn2)nc2sc(-c3ccccc3)cc12 | – | inconclusive: 16.4 µM [cytotoxic, single point]
22 | COc1ccc(C(=O)Nc2ccc3c(c2)OCO3)cc1S(=O)(=O)N1CCOCC1 | inactive: 10.5% | –
23 | CC(=O)Nc1sc(N/N=C\c2ccco2)nc1-c1cccs1 | inactive: 17.3% | –
24 | Cn1c(=O)[nH]c(=O)c2c1nc(N1CCCCC1)n2CCCSc1nnnn1-c1ccccc1 | inactive: 29.3% | –

Row | Structure (SMILES) | activity change, negative = cytotoxic | Potency
25 | CC(C)N1CCCC(C)(C(=O)Nc2ccccc2)C1 (stereo not given) | inactive: 0% | –
26 | COC(CNS(=O)(=O)c1cc2c3c(c1)CCN3C(=O)CC2)OC | – | inconclusive: 2.59 µM [cytotoxic, partial curve, poor fit]
27 | N#C/C(=C/c1ccc(N2CCOCC2)o1)C(=O)Nc1ccccc1 | – | inconclusive: 29.1 µM [rising, single point]
28 | O=C(O)Cc1ccc(NC(=O)c2ccc3c(c2)C(=O)N(CC2CCCO2)C3=O)cc1 (stereo not given) | – | inconclusive: 6.51 µM [rising, partial curve, poor fit]
29 | Cc1cccc(NC(=O)CSc2nc3c([nH]c4ccccc43)c(=O)n2C)c1 | – | inconclusive: 23.1 µM [cytotoxic, single point]
30 | O=C(NC(Nc1cc(C(F)(F)F)ccc1Cl)C(=O)c1ccccc1)c1ccccc1 (stereo not given) | – | inconclusive: 16.4 µM [cytotoxic, single point]
31 | CC(C)(C)c1ccc(Oc2cccc(C3CC(=O)C(C4NCCc5ccccc54)C(=O)C3n3cncn3)c2)cc1 (stereo not given) | inactive: -1.08% | –
32 | O=C(Nc1ccccc1)c1cc([N+](=O)[O-])ccc1N1CCCCC1 | inactive: -3.1% | –
33 | O=C(Nc1ccncc1)c1ccc2ccccc2c1 | inactive: -22.8% | –
34 | C[C@H](CO)N1C[C@H](C)[C@@H](CN(C)Cc2ccncc2)Oc2c(NC(=O)Cc3ccccc3)cccc2C1=O | – | active: 16.4 µM
35 | Clc1ccccc1-c1ccc(/C=N/n2cnnc2)o1 | – | active: 5.8 µM
36 | CCc1nc2ccc(C(=O)N3CCN(c4ccccc4)CC3)cn2c1N(C)CCCc1ccccc1 | – | inconclusive: 29.1 µM [cytotoxic, single point]
37 | Cc1ccccc1CSCCNC(=S)Nc1ccccc1 | – | inconclusive: 16.4 µM [cytotoxic, single point]
38 | Cn1c(SCC(=O)NCC2CCCO2)ncc(C(=O)Nc2ccccc2)c1=O (stereo not given) | inactive: -9.72% | –
39 | COc1ccc(NC(=O)CSc2nnc(Cc3cccn3C)n2CCc2ccccc2)c(OC)c1 | inactive: -9.42% | –
40 | NC(=O)c1[nH]cnc1N | – | inconclusive: 0.0184 µM [rising, full curve]
41 | O=C(NCc1ccc(Cl)c(Cl)c1)c1cc(C2CCCCN2C(=O)C2CCCCC2)on1 (stereo not given) | – | inconclusive: 29.1 µM [cytotoxic, single point]
42 | O=C1/C(=C/c2cccnc2)SC(=S)N1C1CCS(=O)(=O)C1 (stereo not given) | – | inconclusive: 18.4 µM [cytotoxic, single point]
43 | Cc1c(O)ccc(C(=O)CN2CCN(Cc3ccc4c(c3)OCO4)CC2)c1O | inactive: -25.7% | –
44 | NS(=O)(=O)c1ccc(CCNC(=O)c2ccc3ccccc3n2)cc1 | – | inconclusive: 18.4 µM [rising, partial curve, poor fit]
45 | N#C/C(=C\N1CCN(Cc2ccc3c(c2)OCO3)CC1)c1nc2ccccc2s1 | – | inconclusive: 18.4 µM [cytotoxic, partial curve, poor fit]
46 | CC(=O)c1ccccc1-c1csc2ncnc(Sc3nnnn3C)c12 | – | inconclusive: 18.4 µM [cytotoxic, partial curve]
47 | O=[N+]([O-])c1cc2c(cc1/C=N/NS(=O)(=O)c1ccc(Br)cc1)OCO2 | inconclusive: -11.9% | –
48 | O=C1C(Cl)=C(NCCN2CCCCC2)C(=O)c2ccccc21 | – | inconclusive: 2.59 µM [cytotoxic, full curve, poor fit]

Laid out differently: results already given
COC(CNS(=O)(=O)c1cc2c3c(c1)CCN3C(=O)CC2)OC
  Potency: inconclusive: 2.59 µM [cytotoxic, partial curve, poor fit]
Cc1cccc(NC(=O)CSc2nc3c([nH]c4ccccc43)c(=O)n2C)c1
  Potency: inconclusive: 23.1 µM [cytotoxic, single point]
O=C(NCc1ccc(Cl)c(Cl)c1)c1cc(C2CCCCN2C(=O)C2CCCCC2)on1 (stereo not given)
  Potency: inconclusive: 29.1 µM [cytotoxic, single point]

Next part

Row | Structure (SMILES) | activity change, negative = cytotoxic | Potency
49 | COc1ccccc1NC(=O)Nc1nc(CC(=O)N2CCN(c3ccccc3)CC2)cs1 | – | inconclusive: 29.1 µM [cytotoxic, single point]
50 | CC(=O)c1ccc(S(=O)(=O)N2CCN(c3ccccc3F)CC2)cc1 | inactive: -23.8% | –
51 | CC[C@]12CCCN3CCc4c(n(c5ccccc45)C(=O)C1)[C@@H]32 | – | inconclusive: 6.51 µM [cytotoxic, partial curve]
52 | OCCOCCNc1ncnc2sc(-c3ccccc3)cc12 | – | inconclusive: 35.5 µM [cytotoxic, single point]
53 | CC(=O)c1cccc(NS(=O)(=O)c2c(C)nc3sc(C)cn3c2=O)c1 | – | inconclusive: 14.6 µM [cytotoxic, partial curve, poor fit]
54 | Cc1nc2ccccn2c1C(=O)/C=C/c1ccc(F)cc1 | – | active: 16.4 µM
55 | CC1CCN(CC2C(=O)O[C@@H]3C[C@@]4(C)CCC[C@H](C)C4=C[C@H]23)CC(C)(C)C1 (stereo not given in full) | inactive: -4.3% | –
56 | Cc1ccc(NC(=O)c2sc3nc(C)nc(N4CCN(c5ccccn5)CC4)c3c2C)c(C)c1 | inactive: -2.91% | –
57 | COc1cc(-c2cc(NC(C)=O)c3ncc(-c4cc(OC)c(OC)c(OC)c4)n3c2)cc(OC)c1OC | – | inconclusive: 23.1 µM [cytotoxic, single point]
58 | COC(=O)c1ccc(Cn2c(SCc3cccc(C)c3)nc3ccncc32)cc1 | inactive: 6.55% | –
59 | CC(C)(C)n1nnnc1C(c1ccncc1)N1CCN(C2CCCCC2)CC1 (stereo not given) | inactive: -9.21% | –
60 | COc1ccc(-c2csc(NC(=O)Cc3ccccc3)n2)cc1OC | inactive: -0.142% | –
61 | Cc1cc([N+](=O)[O-])ccc1NCc1ccc2c(c1)OCCO2 | inactive: -10.3% | –
62 | Cc1ccc(S(=O)(=O)N(C)c2ccc(OCC(=O)Nc3nc(-c4ccccc4)cs3)cc2)cc1 | inactive: -20.4% | –
63 | Cc1cc(N2CCC(C)CC2)nc2ccc(NC(=O)CCC(=O)N3CCN(c4cccc(C(F)(F)F)c4)CC3)cc12 | – | inconclusive: 16.4 µM [cytotoxic, partial curve, poor fit]
64 | O=C(CSc1cc(Cl)ccc1Cl)NCCCn1ccnc1 | – | inconclusive: 2.91 µM [cytotoxic, partial curve, poor fit]
65 | CCC(=O)Nc1nc(-c2cc([N+](=O)[O-])cs2)cs1 | – | inconclusive: 29.1 µM [rising, single point]
66 | CC(C)CCNC(=O)C1CCN(c2nc3ccccc3o2)CC1 | – | inconclusive: 25.9 µM [cytotoxic, single point]
67 | Nc1[nH]c(=S)nc2nnsc12 | – | inconclusive: 32.6 µM [cytotoxic, partial curve, poor fit]
68 | O=C(CCN1C(=O)/C(=C/c2ccccc2Cl)SC1=S)N1CCCC1 | – | inconclusive: 29.1 µM [cytotoxic, single point]
69 | Cc1ccc(-c2csc(NC(=O)c3ccc(F)cc3)c2C(=O)O)cc1 | – | inconclusive: 20.6 µM [cytotoxic, single point]
70 | COc1ccc(-c2nc(-c3cccc(C)c3)[nH]c(=O)c2C#N)cc1 | – | inconclusive: 23.1 µM [cytotoxic, partial curve, poor fit]
